This note sets out measurements from PMC9915767.

Chains of the proteins cited; added tags and fusions are not shown. Residues count along the entry.
UniProt P49582, residues 23-502: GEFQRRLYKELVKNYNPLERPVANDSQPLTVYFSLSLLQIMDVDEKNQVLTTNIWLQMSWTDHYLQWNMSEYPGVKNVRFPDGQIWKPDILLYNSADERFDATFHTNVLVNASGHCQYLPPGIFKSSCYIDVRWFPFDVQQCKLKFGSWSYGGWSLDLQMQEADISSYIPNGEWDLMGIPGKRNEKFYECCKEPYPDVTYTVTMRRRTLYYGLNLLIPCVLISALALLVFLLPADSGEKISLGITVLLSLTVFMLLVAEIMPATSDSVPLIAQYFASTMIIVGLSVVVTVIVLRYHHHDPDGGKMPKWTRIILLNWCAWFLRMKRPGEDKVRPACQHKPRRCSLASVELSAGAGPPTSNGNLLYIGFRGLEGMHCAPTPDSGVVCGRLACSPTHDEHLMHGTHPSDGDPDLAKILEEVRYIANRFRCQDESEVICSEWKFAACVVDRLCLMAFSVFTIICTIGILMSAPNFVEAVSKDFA

This assay deals with T1, lynx2 nicotinic receptor modulatory protein (mouse (endogenous in BLA tissue)) (UniProt Q8BLC3).
T1 sequence: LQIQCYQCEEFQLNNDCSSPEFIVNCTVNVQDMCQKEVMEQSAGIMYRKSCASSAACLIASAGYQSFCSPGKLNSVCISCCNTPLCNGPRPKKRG
As to the kind of experiment: co-IP; BLA homogenate of WT mice (13 mg/ml) in Co-IP buffer (50 mM Tris, 150 mM NaCl, 0.75% Triton-X 100, protease inhibitors) incubated 3 days at RT with Dynabeads A carrying rabbit anti-lypd1 (lynx2) antibody; eluate blotted with anti-α7 nAChR subunit antibody; lynx2KO mice as negative control.

Results are given in words; binding and its absence hold for the method and conditions named. In cells and extracts the contact can be indirect. Some results given as binding are weak or reduced against the parent protein; the word gives no strength.

On to “α7 nicotinic acetylcholine receptor subunit (from UniProt P49582 23-502)”, for which the binding entry is on record as “binds”.
